Experimental data published in patent publication US10583117B2, “Oxo-M and 4-PPBP induction of tenogenic differentiation of perivascular tendon stem cells” (The Trustees of Columbia University in the City of New York, priority 2016, dated 2020).
At least one structure is not confirmed: it was looked up by name or label, or the drawing left a doubt. Some results were stated once for a whole list of compounds, not compound by compound.

System: CD146+ perivascular tendon stem/progenitor cells (PTSCs)
Format: cell-based, rat

Row | Compound | increase in tendon-related gene expressions (collagen I and III, Tn-C, VIM, Tnmd, Scx) | effect on tendon-related gene expressions
1 | O=C(O)/C=C\C(=O)O.c1ccc(CCCCN2CCC(c3ccccc3)CC2)cc1 [4-PPBP, 4-phenyl-1-(4-phenylbutyl)-piperidine maleate] | 1.5-2.5 fold | 
2 | CSCC[C@H](NC(=O)[C@H](CC(C)C)NC(=O)[C@H](Cc1cnc[nH]1)NC(=O)CNC(=O)[C@@H](NC(=O)[C@H](C)NC(=O)[C@H](Cc1c[nH]c2ccccc12)NC(=O)[C@H](CCC(N)=O)NC(=O)[C@H](CC(N)=O)NC(=O)CNC(=O)[C@H](CC(C)C)NC(=O)[C@H](CCCN=C(N)N)NC(=O)[C@H](CCC(N)=O)NC(=O)[C@@H]1CCC(=O)N1)C(C)C)C(N)=O [BOM, [Tyr4]-Bombesin] |  | failed to affect
3 | C[N+](C)(C)CC#CCN1CCCC1=O [Oxo-M, Oxotremorine methiodide] | 1.5-2.5 fold | 
